Out of some 400,000 compounds screened, about 13,000 (3.2%) were called active. The inconclusive results got no clear call from the source; some entries with a clear call stand among them for comparison. Calls follow the shape of the dose curve; as a rule, active = well fitted cell-killing curve with a large enough effect; inconclusive = small, poorly fitted or top-dose-only effect, or effect the other way; inactive = flat fitted curve, though single readings scatter. Potencies of inconclusive entries are doubtful fits and often do not repeat.
Assay: qHTS assay for MDR1-selective chemotherapeutics: Primary screen using the drug-selected MDR subline cells KB-V1; also: nearly all actives have a fitted effect of over 60% in size
Conditions: KB-V1 MDR cells viability, CellTiter-Glo, 72 h; activity change, negative = cytotoxicity: at 46.1 µM (top of the series)
Method in brief: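 Cytotoxicity toward P-gp-expressing KB-V1 cells was determined as loss of CellTiter-Glo luminescence after 72 h at 37 degrees C. Compounds were tested in quantitative HTS format across a concentration range, with curves fitted to normalized data.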
% is scaled to controls: 0 for no effect and ±100 for the full control effect; potency is read from the fitted curve at half-maximal effect.

SMILES	Potency	activity change, negative = cytotoxicity
Cc1ccc(S(=O)(=O)N/N=C/c2cccc3c2OCCO3)cc1	inconclusive: 9.2 µM [rising, partial curve, poor fit]	–
CN(C)c1nc(NCc2ccccc2)nc(N/N=C/c2ccc(Br)cc2)n1	–	inactive: 2.62%
CCN(CC)c1cc(C(F)(F)F)nc(-c2ccccn2)n1	active: 18.4 µM	–
COc1ccc(-c2cn[nH]c2-c2ccc(OCc3ccc([N+](=O)[O-])cc3)cc2O)cc1OC	active: 4.11 µM	–
O=C(CSc1nc2ccccc2o1)N1CCOCC1	inconclusive: 4.61 µM [rising, full curve]	–
CNC(=S)N(Cc1ccc(OC)cc1)Cc1cc2ccc(C)cc2[nH]c1=O	inconclusive: 6.51 µM [cytotoxic, partial curve]	–
CCN(CC)S(=O)(=O)c1ccc(N2CCOCC2)c(NC(=O)CCOc2ccccc2)c1	inconclusive: 2.31 µM [cytotoxic, full curve]	–
O=C(CN1CCN(c2ccccn2)CC1)Nc1cc(C(F)(F)F)ccc1Cl	inconclusive: 11.6 µM [cytotoxic, partial curve]	–
O=C(C(=O)N1CCN(C(=O)c2ccco2)CC1)c1cc2ccccc2o1	–	inactive: -5.09%
COc1cc2cc(C(c3nnnn3C(C)(C)C)N3CCc4ccccc4C3)c(=O)[nH]c2cc1OC (stereo not given)	inconclusive: 29.1 µM [cytotoxic, single point]	–
O=C(CSc1nnc(Nc2ccccc2)s1)NC1CCCC1	inconclusive: 23.1 µM [cytotoxic, single point]	–
COc1cc(NC(=O)C23CC4CC(C2)CC(n2nnc(C)n2)(C4)C3)c(OC)cc1Cl	inconclusive: 1.84 µM [cytotoxic, partial curve, poor fit]	–
CCn1cc2nc(SCC(=O)Nc3ccccc3F)n(Cc3ccc(C)cc3)c(=O)c2n1	inconclusive: 29.1 µM [cytotoxic, single point]	–
COC(=O)C(Cc1c[nH]c2ccccc12)NC(C)=O (stereo not given)	inconclusive: 20.6 µM [rising, partial curve, poor fit]	–
COC(=O)c1cccc(CC2(C)C(=O)Nc3ccc(OC(F)(F)F)cc32)c1 (stereo not given)	inconclusive: 25.9 µM [cytotoxic, partial curve, poor fit]	–
N#C/C(=N\Nc1ccc([N+](=O)[O-])cc1)C(N)=S	inconclusive: 29.1 µM [cytotoxic, single point]	–
CCN(CC(=O)NCc1cccs1)C(=O)CCC(=O)c1ccc(F)cc1	inconclusive: 16.4 µM [cytotoxic, single point]	–
CCOc1ccc(NS(=O)(=O)c2cccc(C(=O)NCC3(N(C)C)CCCCC3)c2)cc1	inconclusive: 29.1 µM [cytotoxic, partial curve, poor fit]	–
Cc1ccc(Sc2ncccc2N)cc1	–	inactive: -0.665%
c1cncc(-c2ccc3[nH]ccc3c2)c1	inconclusive: 0.411 µM [rising, full curve]	–
CC(Oc1ccccc1)C(=O)Nc1ccc(NC(=O)c2ccccc2)cc1 (stereo not given)	–	inactive: 8.9%
O=C(COC(=O)c1ccccn1)NCc1cccc(Cl)c1	inconclusive: 10.3 µM [rising, partial curve, poor fit]	–
CC(C)(C)c1csc(Sc2ccc([N+](=O)[O-])cn2)n1	inconclusive: 25.9 µM [cytotoxic, single point]	–
C=CCn1c(SCC(=O)NCc2ccc3c(c2)OCO3)nnc1C1COc2ccccc2O1 (stereo not given)	inconclusive: 9.2 µM [cytotoxic, partial curve]	–

Reformatted: entries from further up
SMILES,Potency,"activity change, negative = cytotoxicity"
Cc1ccc(S(=O)(=O)N/N=C/c2cccc3c2OCCO3)cc1,"inconclusive: 9.2 µM [rising, partial curve, poor fit]",–
CN(C)c1nc(NCc2ccccc2)nc(N/N=C/c2ccc(Br)cc2)n1,–,inactive: 2.62%
CCN(CC)c1cc(C(F)(F)F)nc(-c2ccccn2)n1,active: 18.4 µM,–
COc1ccc(-c2cn[nH]c2-c2ccc(OCc3ccc([N+](=O)[O-])cc3)cc2O)cc1OC,active: 4.11 µM,–
O=C(CSc1nc2ccccc2o1)N1CCOCC1,"inconclusive: 4.61 µM [rising, full curve]",–
CNC(=S)N(Cc1ccc(OC)cc1)Cc1cc2ccc(C)cc2[nH]c1=O,"inconclusive: 6.51 µM [cytotoxic, partial curve]",–
CCN(CC)S(=O)(=O)c1ccc(N2CCOCC2)c(NC(=O)CCOc2ccccc2)c1,"inconclusive: 2.31 µM [cytotoxic, full curve]",–
O=C(CN1CCN(c2ccccn2)CC1)Nc1cc(C(F)(F)F)ccc1Cl,"inconclusive: 11.6 µM [cytotoxic, partial curve]",–
O=C(C(=O)N1CCN(C(=O)c2ccco2)CC1)c1cc2ccccc2o1,–,inactive: -5.09%
COc1cc2cc(C(c3nnnn3C(C)(C)C)N3CCc4ccccc4C3)c(=O)[nH]c2cc1OC (stereo not given),"inconclusive: 29.1 µM [cytotoxic, single point]",–
COc1cc(NC(=O)C23CC4CC(C2)CC(n2nnc(C)n2)(C4)C3)c(OC)cc1Cl,"inconclusive: 1.84 µM [cytotoxic, partial curve, poor fit]",–
CCn1cc2nc(SCC(=O)Nc3ccccc3F)n(Cc3ccc(C)cc3)c(=O)c2n1,"inconclusive: 29.1 µM [cytotoxic, single point]",–
COC(=O)C(Cc1c[nH]c2ccccc12)NC(C)=O (stereo not given),"inconclusive: 20.6 µM [rising, partial curve, poor fit]",–
COC(=O)c1cccc(CC2(C)C(=O)Nc3ccc(OC(F)(F)F)cc32)c1 (stereo not given),"inconclusive: 25.9 µM [cytotoxic, partial curve, poor fit]",–
N#C/C(=N\Nc1ccc([N+](=O)[O-])cc1)C(N)=S,"inconclusive: 29.1 µM [cytotoxic, single point]",–
CCN(CC(=O)NCc1cccs1)C(=O)CCC(=O)c1ccc(F)cc1,"inconclusive: 16.4 µM [cytotoxic, single point]",–
CCOc1ccc(NS(=O)(=O)c2cccc(C(=O)NCC3(N(C)C)CCCCC3)c2)cc1,"inconclusive: 29.1 µM [cytotoxic, partial curve, poor fit]",–
Cc1ccc(Sc2ncccc2N)cc1,–,inactive: -0.665%
c1cncc(-c2ccc3[nH]ccc3c2)c1,"inconclusive: 0.411 µM [rising, full curve]",–
O=C(COC(=O)c1ccccn1)NCc1cccc(Cl)c1,"inconclusive: 10.3 µM [rising, partial curve, poor fit]",–
C=CCn1c(SCC(=O)NCc2ccc3c(c2)OCO3)nnc1C1COc2ccccc2O1 (stereo not given),"inconclusive: 9.2 µM [cytotoxic, partial curve]",–

(further entries)

SMILES	Potency	activity change, negative = cytotoxicity
CCOc1cc(NC(=S)NCC(C)C)c(OCC)cc1NC(=O)c1ccco1	inconclusive: 0.58 µM [cytotoxic, full curve]	–
COc1ccc(NC(=O)C(c2cc3c(cc2[N+](=O)[O-])OCO3)N2CCN(C=O)CC2)cc1 (stereo not given)	inconclusive: 29.1 µM [rising, single point]	–
CCN(CC)CCCC(C)NC(=O)c1ccc(C(F)(F)F)cc1 (stereo not given)	–	inconclusive: 1.67%
O=C(COC(=O)c1ccc(N2CCCC2=O)cc1)c1ccccc1	–	inactive: 7.78%
Cc1nnc(SCC(=O)N2CCC(C(N)=O)CC2)s1	–	inactive: 0.232%
S=C(Nc1ccccc1)c1nc2ccccc2s1	–	inactive: 15.9%
CCCCN1C(=O)/C(=C(/C#N)C(=O)N2CCCC2)c2ccccc21	inconclusive: 20.6 µM [cytotoxic, partial curve]	–
COc1cc(C(=O)NN=Cc2ccc(N(C)C)cc2)cc(OC)c1OC	active: 3.66 µM	–
Cc1nc(C)c2c(=O)cc(-c3ccccc3)[nH]c2n1	active: 3.16 µM	–
COc1ccc(C=C2CCC3C(=O)CCCC3(C)C2=O)cc1 (stereo not given)	–	inactive: -21.9%
COC(=O)c1ccccc1NC(=O)Cn1cnc2c(cnn2-c2ccccc2)c1=O	active: 6.51 µM	–
COc1ccccc1CNC(=O)CCNC(=O)N1CC(=O)Nc2ccccc21	inconclusive: 20.6 µM [rising, single point]	–
COC(=O)C(C(=O)OC)C1CCCCC1NS(=O)(=O)c1ccc(C)cc1 (stereo not given)	inconclusive: 10.3 µM [cytotoxic, partial curve]	–
O=C(NN=C(Cc1ccccc1)Cc1ccccc1)c1ccccc1F	–	inactive: -20.5%
COc1cc(-c2nnc(SCC(=O)N(Cc3ccccc3)C(C)(C)C)o2)cc(OC)c1OC	inconclusive: 20.6 µM [cytotoxic, partial curve, poor fit]	–
CCOC(=O)c1c(C)[nH]c(C(=O)COC(=O)c2cc(C)oc2C)c1C	inconclusive: 29.1 µM [cytotoxic, single point]	–
Cc1sc2ncnc(N3CCN(S(=O)(=O)c4ccccc4)CC3)c2c1C	active: 7.31 µM	–
COCC(C)NC(=O)c1cnn2c(C(F)F)cc(-c3ccccc3)nc12 (stereo not given)	–	inactive: 0%
CN(C(=O)Cn1cc(S(=O)(=O)N2CCN(c3ccccc3F)CC2)c2ccccc2c1=O)c1ccc(Cl)cc1	–	inactive: 14.3%
Cc1ccc(NC(=O)CN2CCN(C(=O)c3ccco3)CC2)cc1S(=O)(=O)N(C)C	inconclusive: 16.4 µM [cytotoxic, single point]	–
COc1cc(COC(=O)Oc2ccc(CNC(C)=O)cc2OC)c([N+](=O)[O-])cc1OC	inconclusive: 29.1 µM [rising, single point]	–
N#Cc1cccc(NC(=O)CSc2ccccc2)c1	inconclusive: 29.1 µM [cytotoxic, single point]	–
CSc1nsc(SC)c1C(N)=O	inconclusive: 11.6 µM [rising, partial curve, poor fit]	–
Cc1ccc(SCCN2CCC(NC(=O)OCc3ccccc3)CCC2=O)cc1 (stereo not given)	inconclusive: 16.4 µM [cytotoxic, single point]	–

SMILES	Potency	activity change, negative = cytotoxicity
COc1ccc2c(c1)OC[C@H]1[C@H]2N2C(=O)c3cc(OC)c(OC)cc3NC(=O)[C@@]2(C)[C@H]1c1ccccc1	inconclusive: 29.1 µM [cytotoxic, single point]	–
Cc1nn(C(C)C)c(C)c1CN1CCC(C(=O)Nc2cccc(-c3cccc(F)c3)c2)CC1	inconclusive: 32.6 µM [cytotoxic, partial curve, poor fit]	–
COc1ccc(CNC(=O)COC(=O)c2sccc2C)cc1OC	inconclusive: 14.6 µM [cytotoxic, partial curve, poor fit]	–
C#CCOCCOCCOCCNc1nc(N2CCN(C(=O)[C@H](C(C)C)n3cc(CCO)nn3)CC2)nc(N2CCN(C(=O)[C@H](C)n3cc(CCCN=C(N)N)nn3)CC2)n1	inconclusive: 29.1 µM [rising, single point]	–
Cc1ncoc1C(=O)N1CCCC(CCC(=O)NCc2ccc(F)c(F)c2)C1 (stereo not given)	–	inconclusive: 1.17%
CCOC(=O)C1(CCOc2ccccc2)CCN(Cc2cccs2)CC1	inconclusive: 9.2 µM [cytotoxic, partial curve]	–
COCCNC(=O)NC1(C(F)(F)F)Oc2ccc(Cl)cc2O1 (stereo not given)	inconclusive: 7.31 µM [cytotoxic, partial curve]	–
CCOC(=O)c1c(NC(=O)/C=C/c2ccccc2)sc2c1CCCC2	inconclusive: 20.6 µM [rising, partial curve]	–
COCCNc1oc(/C=C/c2cccs2)nc1S(=O)(=O)c1ccccc1	inconclusive: 20.6 µM [cytotoxic, single point]	–
COc1ccc(OC)c(S(=O)(=O)NCCc2sc(-c3ccc(C)cc3)nc2C)c1	inconclusive: 9.2 µM [cytotoxic, partial curve]	–
O=C(N/N=C/c1ccc(Cl)cc1)c1cc(-c2cccnc2)nc2ccccc12	active: 9.2 µM	–
Fc1ccc(CN2CCN(C(c3ccccc3)c3ccccc3)CC2)cc1	–	inactive: 6.57%
CN(C1CCCCC1)S(=O)(=O)c1ccc(SCC(=O)NC(C)(C)C)nc1	inconclusive: 29.1 µM [cytotoxic, single point]	–
CC1CCCC(NC(=O)CCNC(=O)c2ccc(Cl)cc2)C1C (stereo not given)	inconclusive: 8.2 µM [cytotoxic, partial curve]	–
Cc1sc2ncn(CC(=O)N(C)C3CCCCC3)c(=O)c2c1C	–	inconclusive: -34.7% [cytotoxic]
CC(C)COC(=O)N1CCN(S(=O)(=O)c2ccc3c(c2)CCC3)CC1	active: 14.6 µM	–
CC(C)=Nc1ccccc1C1COC(=O)C1=N (stereo not given)	–	inactive: -3.78%
CC(=O)Nc1cccc(NC(=O)C2CCCN2C(=O)Nc2cccc(C)c2)c1 (stereo not given)	–	inactive: -9.83%
Cc1nnc(SCc2ccc(C(=O)c3ccc(Cl)cc3)o2)n1-c1ccccc1	inconclusive: 23.1 µM [cytotoxic, single point]	–
CC(C)CNC(=O)C1(C)CCCN1C(=O)c1cc2ccccc2s1 (stereo not given)	–	inactive: -10.5%
Cc1ccc(NC(=O)c2ccc(OCC3CCCO3)cc2)cc1 (stereo not given)	active: 20.6 µM	–
CCOC1C(=O)NC(=O)N1Cc1ccccc1 (stereo not given)	inconclusive: 23.1 µM [rising, partial curve, poor fit]	–

— PubChem BioAssay AID1347076 (National Center for Advancing Translational Sciences (NCATS), 2019)
